Source: US10761087B2, “Choroidal neovascularization suppressor or drusen formation suppressor, and method for assessing or screening for same” (Link Genomics, Inc., priority 2015, dated 2020)
Entries after “also recorded” stand apart in the source; their conditions may differ. At least one compound was matched to its structure with a doubt left.

Experiments:
[1] = test system: EMT markers (mesenchymal markers, ECM) in RPE cells (ARPE-19); assay: Change in expression of EMT markers (real-time PCR) in EMT-induced RPE cells; assay type: cell-based, human; conditions: for Enhancement of expression of Fibronectin, Snail and vimentin (mesenchymal markers): compound at Cmax, ½ of Cmax or ¼ of Cmax
Procedure: RPE cells (ARPE-19) were seeded on a plate, and incubated for 5 days at 37° C. For the RPE cells, EMT was induced in the conditions described in Test example 1-1, and respective compounds (oxaprozin, epalrestat, zafirlukast, amlexanox, zaltoprofen) were added simultaneously, and the cells were collected after 48 hours from induction of EMT. As a control, a sample to which a compound to be assessed (test drug) is not added was used. The collected cells were washed with PBS, and 350 μL of an RLT buffer was added to prepare a lysate for RNA extraction. The respective compounds were used in the following concentrations. Oxaprozin: 300 μM, epalrestat: 30 μM, zafirlukast: 3 μM, amlexanox: 30 μM, zaltoprofen: 30 μM. Total RNA was extracted from the lysate using an RNeasy Micro kit (QIAGEN, #74004), and from 2 μg of the obtained RNA, cDNA was prepared using a SuperScript III First-Strand Synthesis SuperMix for qRT-PCR (Invitrogen, #11752-250). Using 50 ng of the obtained cDNA as a template, a real-time PCR (ABI Prism 7500 Sequence Detection System) was conducted according to the manufacturer's protocol, and expression of mRNA of each gene was quantified. Specific primers for respective genes were purchased from Invitrogen. Ct (Threshold Cycle) value of each gene was calculated as a percentage to a non-treated sample after normalization by endogenous control.
Five compounds (flufenamic acid aluminum (addition concentration: 28 μM (Cmax)), mefenamic acid (addition concentration: 39 μm (Cmax)), sulindac (addition concentration: 100 μM), tiaprofenic acid (addition concentration: 1000 μM), and seratrodast (addition concentration: 31 μM (Cmax))) were assessed for change in expression of EMT markers in the same manner as in Test example 2-1. The results are shown in FIG. 8 to FIG. 12, respectively.
(§1) RPE cells (ARPE-19) were seeded on a plate, and incubated for 5 days at 37° C. […] Each compound was added in a concentration of Cmax, ½ of Cmax or ¼ of Cmax. As a control, a sample to which a compound to be assessed (test drug) is not added was used. The collected cells were washed with PBS, and 350 μL of an RLT buffer was added to prepare a lysate for RNA extraction. Total RNA was extracted from the lysate using an RNeasy Micro kit (QIAGEN, #74004), and from 2 μg of the obtained RNA, cDNA was prepared using a SuperScript III First-Strand Synthesis SuperMix for qRT-PCR (Invitrogen, #11752-250). Using 50 ng of the obtained cDNA as a template, a real-time PCR (ABI Prism 7500 Sequence Detection System) was conducted according to the manufacturer's protocol, and expression of mRNA of each gene was quantified. Specific primers for respective genes were purchased from Invitrogen. Ct (Threshold Cycle) value of each gene was calculated as a percentage to a non-treated sample after normalization by endogenous control. For each result, a significant test (Student t test) was conducted, and when p<0.05, the result was marked with “*”, and when p<0.01, the result was marked with “**”.
RPE cells (ARPE-19) were seeded on a plate, and incubated for 5 days at 37° C. For the RPE cells, EMT was induced in the conditions described in Test example 5-1, and the five representative compounds (oxaprozin, epalrestat, zafirlukast, amlexanox, zaltoprofen) were added simultaneously, and the cells were collected after 48 hours from induction of EMT. As a control, a sample to which a compound to be assessed (test drug) is not added was used. The collected cells were washed with PBS, and 350 μL of an RLT buffer was added to prepare a lysate for RNA extraction. Total RNA was extracted from the lysate using an RNeasy Micro kit (QIAGEN, # 74004), and from 2 μg of the obtained RNA, cDNA was prepared using a SuperScript III First-Strand Synthesis SuperMix for qRT-PCR (Invitrogen, # 11752-250). […]

VEGF = assay: Change in expression of VEGF mRNA (real-time PCR) in EMT-induced RPE cells; assay type: cell-based, human; conditions: EMT-induced ARPE-19, 48 hours, compound at Cmax, ½ of Cmax or ¼ of Cmax
Procedure: as §1
The results are shown in FIG. 16 or FIG. 17, respectively.
The VEGF suppressive effect was assessed using the cell model as described above in the same manner as in Test example 2-3. The results are shown in FIG. 18 to FIG. 20, respectively.

RPE cells (ARPE-19) = assay: Focus (drusen-like structure) formation suppression in EMT induction model of RPE cells; assay type: cell-based, human; conditions: FIG. 35 to 39; EMT-induced ARPE-19, 48 hours
Procedure: RPE cells (ARPE-19) were seeded on a plate, and incubated for 5 days at 37° C. […] As a control of EMT induction, a sample to which a compound to be assessed (test drug) is not added was used. After 48 hours from EMT induction, the cells were fixed by treating with a 4% paraformaldehyde solution for 30 minutes at room temperature, and then washed three times with PBS. The cells were treated with a 0.2% Triton-X/PBS solution for 5 minutes, and washed three times with PBS. […] The fluorescent-stained cells were imaged by using an Image Express Micro (available from Molecular Devices), and digitized by using a MetaXpress2.0 (available from Molecular Devices). By analyzing the degree of formation of Focus (Focus level) from the numerical data, a Focus formation suppressing rate was calculated according to the following Formula 1 on the basis of the numerical value at the time of no addition of a compound, and the EMT suppressive effect in each compound was verified. The degree of formation of Focus (Focus level) was determined according to the number and the volume of Focus as indexes.
IC50 in the table was calculated using the following Formula 2.
A: Higher concentration sandwiching 50% […]
RPE cells (ARPE-19) were seeded on a plate, and incubated for 5 days at 37° C. […] As a control of EMT induction, a sample to which a compound to be assessed (test drug) is not added was used. […]

mouse = assay: In vivo model test for drusen suppression (TNF-a induced drusen-like structure in retinal region); conditions: oral, 14 days; oxaprozin 600 mg/kg/day, epalrestat 600 mg/kg/day, zaltoprofen 40 mg/kg/day
Procedure: In the vicinity of the retina in the posterior segment of eyeball of mouse, 400 ng of Recombinant Mouse TNF-a (R&D Systems, # 410-MT) was administered. After two weeks from administration, an eye ball was extracted, and a formalin-fixed, paraffin-embedded block was prepared. The tissue sample was deparaffinized by treating three times with xylene for 5 minutes each, twice with 100% ethanol for 1 minute each, with 90% ethanol for 1 minute, with 80% ethanol for 1 minute, with 70% ethanol for 1 minute, and with water for 5 minutes. Staining was conducted with a Mayer' s hematoxylin solution for 4 minutes, and with an eosin liquid for 1 minute. After treating for 5 minutes in flowing water, treatments were conducted with 70% ethanol for 1 minute, with 80% ethanol for 1 minute, with 90% ethanol for 1 minute, twice with 100% ethanol for 1 minute each, and three times with xylene for 5 minutes each, followed by mounting with Marinol. After drying for 15 minutes or more at room temperature, the untreated RPE cells, and the RPE cells in which inflammation is induced were observed. An eyeball tissue segment was prepared from a block. After incubation for 30 minutes in a gas-phase incubator at 56° C., the tissue sample was deparaffinized by treating three times with xylene for 5 minutes each, twice with 100% ethanol for 1 minute each, with 90% ethanol for 1 minute, with 80% ethanol for 1 minute, with 70% ethanol for 1 minute, and with water for 5 minutes. After removing a melanin pigment in tissues using Delicate Melanin Bleach Kit for Special Stains and IHC (Polysciences, # 24909-1) according to the manufacturer's protocol, a microwave treatment using a citrate buffer pH 6.0 was conducted for 10 minutes to activate the antigen. After standing still for 30 minutes at room temperature, treatments were conducted with PBS for 5 minutes, with a 3% hydrogen peroxide/PBS solution for 5 minutes, and with PBS for 5 minutes to inactivate an endogenous peroxidase. The sample was stood still in a 3% BSA/PBS solution for 30 minutes at room temperature to block the tissues. As primary antibodies, an anti-E-Cadherin antibody (BD Biosciences, # 610182) that was 500-fold diluted with a 1.5% BSA/PBS solution, and an anti-Cytokeratin antibody (Sigma, # C2931) that was 1000-fold diluted, and an anti-Fibronectin antibody (abcam, # 45688) that was 1000-fold diluted, and an anti-Vimentin antibody (Cell signaling Technology, # 5741) that was 100-fold diluted were added in an amount of 200 μL per one tissue, and caused to react with the tissues for 17 hours at 4° C. […]

[2] = EMT-induced ARPE-19, 48 hours, oxaprozin 300 μM, epalrestat 30 μM, zafirlukast 3 μM, amlexanox 30 μM, zaltoprofen 30 μM

Row | Compound | Enhancement of expression of Fibronectin, Snail and vimentin (mesenchymal markers) ([1]; EMT-induced ARPE-19, 48 hours) | Expression of EMT markers at the time of EMT induction (FIG. 8 to FIG. 12) ([1]; flufenamic acid aluminum 28 μM, mefenamic acid 39 μm, sulindac 100 μM, tiaprofenic acid 1000 μM, seratrodast 31 μM) | Enhancement of VEGF mRNA expression by EMT induction (VEGF) | Enhancement of VEGF mRNA expression by EMT induction (VEGF; listed as seratrodast) | EMT suppression (FIG. 3 to FIG. 7) [1, 2] | Expression of EMT markers other than the ten common markers [1, 2] | Expression of Snail, Slug, CDH3, MMP1, MMP7, COL5A3, COL6A3, LAMC2, HMMR, TNC [1, 2] | Enhancement of VEGF mRNA expression by EMT induction (VEGF; listed as epalrestat) | Suppression of drusen-like structure formed in the RPE cell model (RPE cells (ARPE-19)) | Formation of a drusen-like structure (HE staining) (mouse) | Immunostaining of E-Cadherin in retinal epithelial cells (mouse) | Immunostaining of Fibronectin (mouse) | Shape of retinal pigment epithelial cells (mouse)
1 | CC1=C(C)C(=O)C(C(CCCCCC(=O)O)c2ccccc2)=C(C)C1=O (stereo not drawn) [Seratrodast, seratrodast] | suppressed enhancement of expression of these in a concentration dependent manner | significantly suppress expression of EMT markers at the time of EMT induction; also recorded: lower expression of EMT markers at the time of EMT induction | suppressed enhancement of VEGF expression in a concentration dependent manner | suppress enhancement of mRNA expression of VEGF |  |  |  |  |  |  |  |  | 
2 | CC(/C=C1\SC(=S)N(CC(=O)O)C1=O)=C\c1ccccc1 [Epalrestat, epalrestat] | suppressed enhancement of expression of these in a concentration dependent manner |  | suppressed enhancement of VEGF expression in a concentration dependent manner |  | significantly suppress EMT | decrease in expression was observed in ZEB2, CDH2, FN1, VIM, COL1A1, COL1A2, COL5A2, COL13A1, CSPG4, and SRGN | suppressed expression | suppress enhancement of mRNA expression of VEGF | suppresses a drusen-like structure formed in the RPE cell model in a concentration-dependent manner | apparently suppressed | strongly positive staining was observed between cells | the signal strength of staining was small | cells keeping a cubic shape were abundantly observed
